These are yes or no findings as the source states them, for the method shown. Some binding calls cover weakened binding; strength is not graded here. For part of these data: Sequences can lack the tags named with a protein. One block for each binder: values may come before it.
Key:
[1] = target: Human HER3 ECD domain I (human) (UniProt P21860); test: DELFIA, plate coated with HER3 Domain I 1ug/ml
[2] = target: Human HER3 ECD domain IV (human) (UniProt P21860); test: DELFIA, plate coated with HER3 Domain IV 1ug/ml
[3] = target: Full-length cynomolgus monkey HER3 extracellular domain (ECD) (cynomolgus monkey) (UniProt G7PIG5); test: BIACORE SPR

Sequences of proteins named here, by UniProt entry; tags and fusion partners are left off. A change or cut given only in a name is not applied to a line headed by its entry. A line that says so, or that is headed by a name, gives the form on record, which may keep a tag or linker.
UniProt P21860: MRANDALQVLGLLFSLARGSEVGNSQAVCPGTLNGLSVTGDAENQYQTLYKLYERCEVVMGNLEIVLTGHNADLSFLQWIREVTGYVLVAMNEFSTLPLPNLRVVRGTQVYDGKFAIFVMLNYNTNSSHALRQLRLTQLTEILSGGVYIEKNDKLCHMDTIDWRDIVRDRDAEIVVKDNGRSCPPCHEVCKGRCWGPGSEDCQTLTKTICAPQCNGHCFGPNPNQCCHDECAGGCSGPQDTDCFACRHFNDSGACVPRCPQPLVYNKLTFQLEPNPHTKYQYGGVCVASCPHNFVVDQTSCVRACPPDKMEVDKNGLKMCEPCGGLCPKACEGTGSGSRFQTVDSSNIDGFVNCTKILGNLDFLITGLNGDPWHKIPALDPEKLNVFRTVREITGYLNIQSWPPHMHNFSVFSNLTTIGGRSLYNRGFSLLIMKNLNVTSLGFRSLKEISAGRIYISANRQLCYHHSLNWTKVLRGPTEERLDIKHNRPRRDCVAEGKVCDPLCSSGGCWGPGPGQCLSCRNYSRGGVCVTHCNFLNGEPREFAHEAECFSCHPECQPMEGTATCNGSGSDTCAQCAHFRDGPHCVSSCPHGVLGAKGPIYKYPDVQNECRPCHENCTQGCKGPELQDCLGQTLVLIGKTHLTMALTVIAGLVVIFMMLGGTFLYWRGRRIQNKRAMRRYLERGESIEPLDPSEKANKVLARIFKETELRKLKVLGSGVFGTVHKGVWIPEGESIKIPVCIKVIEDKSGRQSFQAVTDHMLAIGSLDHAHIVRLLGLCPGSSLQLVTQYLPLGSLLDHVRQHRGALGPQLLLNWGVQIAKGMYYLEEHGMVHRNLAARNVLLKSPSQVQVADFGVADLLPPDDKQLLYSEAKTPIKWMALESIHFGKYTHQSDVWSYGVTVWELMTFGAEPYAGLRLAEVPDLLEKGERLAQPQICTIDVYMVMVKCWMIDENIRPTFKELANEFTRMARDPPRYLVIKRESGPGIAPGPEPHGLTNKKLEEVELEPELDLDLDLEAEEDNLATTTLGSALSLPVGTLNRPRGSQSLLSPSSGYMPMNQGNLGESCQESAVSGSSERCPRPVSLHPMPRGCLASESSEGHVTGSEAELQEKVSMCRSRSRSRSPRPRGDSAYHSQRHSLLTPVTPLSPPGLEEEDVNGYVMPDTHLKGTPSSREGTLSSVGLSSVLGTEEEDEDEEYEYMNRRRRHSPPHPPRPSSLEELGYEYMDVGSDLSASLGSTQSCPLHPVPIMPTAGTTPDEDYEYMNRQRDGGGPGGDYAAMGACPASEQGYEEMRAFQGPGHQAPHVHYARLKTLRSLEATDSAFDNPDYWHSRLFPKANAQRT
Full-length cynomolgus monkey HER3 extracellular domain (ECD) (G7PIG5, form named): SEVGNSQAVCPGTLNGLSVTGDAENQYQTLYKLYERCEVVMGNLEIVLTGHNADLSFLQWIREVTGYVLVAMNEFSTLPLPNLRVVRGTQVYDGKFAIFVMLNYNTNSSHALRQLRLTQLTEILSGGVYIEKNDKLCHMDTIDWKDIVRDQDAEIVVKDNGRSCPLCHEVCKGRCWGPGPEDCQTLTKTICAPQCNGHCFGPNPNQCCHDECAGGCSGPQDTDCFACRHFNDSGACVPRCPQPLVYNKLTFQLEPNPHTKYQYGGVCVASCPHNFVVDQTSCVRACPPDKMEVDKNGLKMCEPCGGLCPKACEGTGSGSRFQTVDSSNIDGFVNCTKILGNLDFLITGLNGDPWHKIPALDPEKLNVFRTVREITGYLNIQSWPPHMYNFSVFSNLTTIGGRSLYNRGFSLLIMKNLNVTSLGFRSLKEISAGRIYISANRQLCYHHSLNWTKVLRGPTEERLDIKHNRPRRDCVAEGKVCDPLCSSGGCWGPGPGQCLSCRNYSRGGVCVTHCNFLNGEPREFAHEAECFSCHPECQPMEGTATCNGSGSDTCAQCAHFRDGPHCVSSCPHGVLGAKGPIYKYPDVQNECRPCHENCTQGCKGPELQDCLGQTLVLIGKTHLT

binding [1]: no binding (tested: 10 ug/ml) | binding [2]: no binding (tested: 10 ug/ml)
B1: Murine 1D9 antibody (M5.1D9.1F5) (antibody, IgG2b, V domains shown)
VH: QVQLQQPGAELVRPGTSVKLSCKASGYTFTSYWMHWVKQRPGQGLEWIGVIDPSDGYSHYNQKFKGKATLTVDTSSSTAYMQLSSLTSEDSAVYYCAGGLAGTLDYWGQGTTLTVSS
VL: DVLMTQTPLSLPVSLGDQASISCRSSQSIVHSSGNTYLQWFLQKPGQSPKLLISKVSNRFSGVPDRFSGSGSGTDFTLRISRVEAEDLGLYYCFQGSHVPWTFGGGTKLEIK

binding [3]: binds
B2: Humanized 1D9 Fc disabled antibody (antibody, V domains shown)
VH: QVQLVQSGAEVKKPGASVKVSCKASGYTFTSYWMHWVRQAPGQGLEWMGVIDPSDGYSHYNQKFKGKVTLTVDTSISTAYMELSRLRSDDTAVYYCAGGLAGTLDYWGQGTTVTVSS
VL: DIQMTQSPSSLSASVGDRVTITCRSSQSIVHSSGNTYLQWFQQKPGKAPKLLIYKVSNRFSGVPSRFSGSGSGTDFTLTISSLQPEDFAVYYCFQGSHVPWTFGQGTKLEIKR
